Data reported in article PMC5113665, “HF‐Free Boc Synthesis of Peptide Thioesters for Ligation and Cyclization” (Angewandte Chemie (International Ed. in English), 2016).
Results are given in words; binding and its absence hold for the method and conditions named. Some results given as binding are weak or reduced against the parent protein; the word gives no strength.

Protein sequences, listed by entry. Tags and fused reporters are not part of them. Lines headed by an entry give the natural chain unless they say otherwise; changes in a name come on top. Chains listed by the source or under a name are the forms on record and can include a tag or linker.
CHK2(73-538)S73C (O96017, form named): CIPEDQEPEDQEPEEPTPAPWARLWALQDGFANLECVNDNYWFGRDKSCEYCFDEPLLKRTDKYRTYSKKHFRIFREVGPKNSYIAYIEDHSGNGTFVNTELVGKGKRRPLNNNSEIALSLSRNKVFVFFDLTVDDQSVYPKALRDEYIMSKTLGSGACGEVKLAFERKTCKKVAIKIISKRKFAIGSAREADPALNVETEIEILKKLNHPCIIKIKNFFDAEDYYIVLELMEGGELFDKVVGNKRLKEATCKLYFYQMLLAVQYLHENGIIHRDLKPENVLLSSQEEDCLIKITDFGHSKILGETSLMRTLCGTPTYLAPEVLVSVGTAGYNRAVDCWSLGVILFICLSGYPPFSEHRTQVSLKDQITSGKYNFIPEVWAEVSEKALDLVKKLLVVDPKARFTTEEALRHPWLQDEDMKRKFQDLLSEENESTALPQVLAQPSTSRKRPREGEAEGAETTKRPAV

Target: CHK2(73-538)S73C (UniProt O96017)
Experiment: SEC; gel-filtration profiles of the purified unligated and ligated CHK2 proteins; both purified

CHK2(73-538)S73C (from UniProt O96017 73-538) (domain or fragment)
binding: binds weakly
